# Hit rate of the full screen: of about 390,000 compounds, about 910 (0.23%) were called active. The shares of active, inactive and inconclusive entries below differ from those in the screen. The call rests on the fitted dose curve; in most records, active means well fitted inhibition curve with a large enough effect; inconclusive means small, poorly fitted or top-dose-only effect; inactive means no such curve, though single readings can be large or run the other way. Potencies of inconclusive entries are doubtful fits and often do not repeat.
# By UniProt entry, the sequences of proteins in these tests, tags left out. Where a name states a change or a piece, a line headed by the entry shows the natural chain unless it says otherwise.
# UniProt O94782: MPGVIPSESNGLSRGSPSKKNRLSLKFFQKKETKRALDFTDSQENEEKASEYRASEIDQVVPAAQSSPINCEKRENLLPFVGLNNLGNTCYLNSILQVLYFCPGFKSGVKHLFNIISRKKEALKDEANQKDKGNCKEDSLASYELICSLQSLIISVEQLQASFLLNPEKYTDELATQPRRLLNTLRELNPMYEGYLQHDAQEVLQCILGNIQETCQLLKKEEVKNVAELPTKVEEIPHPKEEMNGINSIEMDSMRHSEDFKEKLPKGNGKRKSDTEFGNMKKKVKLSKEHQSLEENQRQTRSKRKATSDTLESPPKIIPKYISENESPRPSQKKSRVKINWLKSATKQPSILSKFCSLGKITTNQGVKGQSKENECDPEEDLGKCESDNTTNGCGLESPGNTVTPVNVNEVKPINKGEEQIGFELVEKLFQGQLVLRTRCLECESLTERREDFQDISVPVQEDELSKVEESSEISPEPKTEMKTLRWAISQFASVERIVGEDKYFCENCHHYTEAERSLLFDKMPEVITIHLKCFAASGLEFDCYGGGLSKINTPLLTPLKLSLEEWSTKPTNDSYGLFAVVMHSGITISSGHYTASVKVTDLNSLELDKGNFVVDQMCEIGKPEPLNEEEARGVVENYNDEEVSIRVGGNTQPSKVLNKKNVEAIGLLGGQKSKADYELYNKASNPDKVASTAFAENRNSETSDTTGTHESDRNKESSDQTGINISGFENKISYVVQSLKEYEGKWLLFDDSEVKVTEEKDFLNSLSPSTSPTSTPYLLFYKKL
# Target: Ubiquitin carboxyl-terminal hydrolase 1 (Homo sapiens) (UniProt O94782)
# Experiment: Inhibitors of USP1/UAF1: Primary Screen; further: nearly all actives have a fitted effect of over 60% in size
# Conditions: recombinant USP1/UAF1, Ub-Rhodamine cleavage fluorescence; series mostly up to 57.1 µM
# Method in brief: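 High-throughput fluorogenic screen: 1nM USP1/UAF1 complex, Ub-Rho substrate 150nM final, 50mM HEPES pH 7.8 with 0.5mM EDTA, 0.1 mg/ml BSA, 1mM TCEP and 0.01% Tween-20.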
# Potency means the concentration at half of the fitted maximal effect.
row,Compound,Potency
1,COC(=O)N/N=C(\C)c1cccs1,inactive
2,C/C=C\C=C/C(=O)Nc1cccc(C2=NOC3(C2)C[C@@H](C(N)=O)N(C(=O)/C=C/C=C\C)C3)c1 (stereo not given in full),"inconclusive: 35.5 µM [inhibitor, partial curve, poor fit]"
3,COc1ccc(N=C2SCC(c3ccc([N+](=O)[O-])cc3)=NN2CCO)cc1,"inconclusive: 44.7 µM [inhibitor, single point]"
4,Cc1ccc(S(=O)(=O)N2CCN(C(=O)c3cccs3)CC2)cc1C,"inconclusive: 7.94 µM [inhibitor, partial curve, poor fit]"
5,CCCCNC(=O)c1cc(-c2ccc(Cl)c(Cl)c2)on1,inactive
6,COc1ccc(Cn2c(C)nc3c(c2=O)c2nc4ccccc4nc2n3Cc2ccco2)cc1,"inconclusive: 14.1 µM [inhibitor, partial curve, poor fit]"
7,O=c1oc(-c2ccccc2)nc2sc3c(c12)CCCC3,"inconclusive: 2.82 µM [inhibitor, partial curve]"
8,c1ccc(COc2ccccc2CNCc2cccnc2)cc1,"inconclusive: 5.62 µM [inhibitor, partial curve]"
9,COc1cc(S(=O)(=O)n2ccnc2C(C)C)ccc1Br,inactive
10,C=CC[C@@H](CC(=O)N[C@@H](CO)Cc1ccccc1)C(=O)N[C@@H](COC(=O)[C@@H](CC=C)Cc1ccc(F)cc1)Cc1c[nH]c2ccccc12,"inconclusive: 70.8 µM [inhibitor, partial curve, poor fit]"
11,Cc1ccc(Cn2ccnc2SCC(=O)NC2CCCC2)cc1,"inconclusive: 12.6 µM [inhibitor, partial curve]"
12,CCCN1C(=O)/C(=C/c2c(N3CCNC(=O)C3CC(=O)OCC)nc3c(C)cccn3c2=O)SC1=S (stereo not given),"inconclusive: 1.78 µM [inhibitor, full curve, poor fit]"
13,CCn1c(COc2cccc(OC)c2)nnc1SCC(=O)NCC1CCCO1 (stereo not given),"inconclusive: 44.7 µM [inhibitor, partial curve, poor fit]"
14,O=C(Nc1ccccc1)Nc1ccc(O)c2ccccc12,"inconclusive: 14.1 µM [inhibitor, partial curve]"
15,Cn1c(C(=O)NCCCN2CCc3ccccc3C2)cc2c(=O)n(C)c3ccccc3c21,"inconclusive: 25.1 µM [inhibitor, partial curve]"
16,Cc1cccc(Cc2c(C)nc3nc(SCc4cccc(F)c4)nn3c2C)c1,"inconclusive: 2 µM [inhibitor, full curve, poor fit]"
17,COC(=O)c1c(-c2cccs2)csc1NC(=O)c1ccc(C(C)(C)C)cc1,"inconclusive: 44.7 µM [inhibitor, partial curve, poor fit]"
18,COc1ccc(-c2nnc(SCC(=O)c3ccc(NC(C)=O)cc3)o2)cc1OC,"inconclusive: 17.8 µM [inhibitor, partial curve]"
19,CCN(CC)CCN1C(=O)C(O)=C(C(C)=O)C1c1ccccc1[N+](=O)[O-] (stereo not given),"inconclusive: 31.6 µM [inhibitor, partial curve]"
20,CCC1CSC(Nc2ccc(C(=O)/C=C/c3cccc(C)c3)cc2)=N1 (stereo not given),"inconclusive: 35.5 µM [inhibitor, partial curve]"

# Seven successive entries out of the list so far, quoted:
row,Compound,Potency
3,COc1ccc(N=C2SCC(c3ccc([N+](=O)[O-])cc3)=NN2CCO)cc1,"inconclusive: 44.7 µM [inhibitor, single point]"
4,Cc1ccc(S(=O)(=O)N2CCN(C(=O)c3cccs3)CC2)cc1C,"inconclusive: 7.94 µM [inhibitor, partial curve, poor fit]"
5,CCCCNC(=O)c1cc(-c2ccc(Cl)c(Cl)c2)on1,inactive
6,COc1ccc(Cn2c(C)nc3c(c2=O)c2nc4ccccc4nc2n3Cc2ccco2)cc1,"inconclusive: 14.1 µM [inhibitor, partial curve, poor fit]"
7,O=c1oc(-c2ccccc2)nc2sc3c(c12)CCCC3,"inconclusive: 2.82 µM [inhibitor, partial curve]"
8,c1ccc(COc2ccccc2CNCc2cccnc2)cc1,"inconclusive: 5.62 µM [inhibitor, partial curve]"
9,COc1cc(S(=O)(=O)n2ccnc2C(C)C)ccc1Br,inactive

# Next part

row,Compound,Potency
1,COc1cccc(N2CC(NC(=O)C3CCCC3)CC2=O)c1 (stereo not given),"inconclusive: 5.01 µM [inhibitor, full curve, poor fit]"
2,COc1ccc(Cl)cc1NC(=O)Cn1nnc(C(=O)NCc2cccs2)c1N,"inconclusive: 25.1 µM [inhibitor, partial curve, poor fit]"
3,Cc1c([N+](=O)[O-])cc(N2C(=O)C=CC2=O)cc1[N+](=O)[O-],"inconclusive: 0.355 µM [inhibitor, full curve]"
4,CC(C)OC(=O)c1ccc(COC(=O)c2cnccn2)cc1,"inconclusive: 3.16 µM [inhibitor, partial curve]"
5,O=C(CN1C(=O)COc2ccccc21)N1CCOCC1,inactive
6,COCCNC(=O)Cn1cc2c(n1)-c1c(oc(C(=O)N3CCCC3)c1C)CC2,"inconclusive: 39.8 µM [inhibitor, single point]"
7,CCOc1ccc(N=C/C=C/c2ccccc2)c(O)c1,"inconclusive: 28.2 µM [inhibitor, partial curve]"
8,O=C(C[C@H]1C/C=C\CC[C@@H](Cc2ccc(F)cc2)C(=O)OC[C@H]2CCCN2C1=O)N[C@@H](CO)Cc1ccccc1,"inconclusive: 44.7 µM [inhibitor, single point]"
9,CC(C)N1CC=C2C(C#N)=C(N)C(C#N)(C#N)C(c3ccccc3)C2C1 (stereo not given),"inconclusive: 28.2 µM [inhibitor, partial curve]"
10,O=C(NCCc1c[nH]c2ccccc12)c1ccc([N+](=O)[O-])cc1,inactive
11,CC(C)(C)NC(=O)CN1C(=O)c2cccc3cccc1c23,"inconclusive: 0.1 µM [inhibitor, full curve, poor fit]"
12,CCCn1nc2cc(C(=O)NCc3ccc4c(c3)OCO4)ccc2c1OCC,"inconclusive: 5.01 µM [inhibitor, partial curve]"
13,CCOC(=O)N1CCN(Cc2nc3cc(NC(C)=O)ccc3n2C)CC1,"inconclusive: 0.708 µM [inhibitor, full curve, poor fit]"
14,COc1ccc2c(c1)CCc1c(C(=O)N3CC4(C)CC3CC(C)(C)C4)noc1-2 (stereo not given),"inconclusive: 28.2 µM [inhibitor, single point]"
15,Cc1ccccc1CN1C(=O)c2ccccc2Sc2ccc(C(=O)NCCN3CCOCC3)cc21,"inconclusive: 12.6 µM [inhibitor, partial curve]"
16,NC(=O)CC(c1ccccc1)c1ccc2c(c1)OCO2 (stereo not given),inactive
17,O=C1CC/C=C\C[C@@H](CC(=O)N(CCO)Cc2ccccc2)C(=O)N2CCC[C@H]2CO1,"inconclusive: 7.94 µM [inhibitor, partial curve]"
18,O=C(N/N=C/c1ccc(F)cc1)c1ccc(Br)cc1,inactive
19,N#CC1=C(N)Oc2n[nH]c(-c3cccnc3)c2C1c1cc(F)ccc1F (stereo not given),inactive
20,CCOC(=O)C1CCN(C(=O)Cc2cccs2)CC1,inactive

# Source: PubChem BioAssay AID743255 (National Center for Advancing Translational Sciences (NCATS), 2014)
